{
  "source": "patent US20250361221A1",
  "about": "“SOLID STATE FORMS OF PALTUSOTINE AND PROCESS FOR PREPARATION THEREOF” (ASSIA CHEMICAL INDUSTRIES LTD., priority 2022, published 2025)",
  "assay": "Storage stability at different relative humidities, ambient temperature, 7 days (XRPD)",
  "format": "physicochemical",
  "settings": "20% to 100% relative humidity",
  "note": "Some of these results come from one statement about several compounds together.",
  "data": [
    {"smiles": "N#Cc1cccc(-c2ccc3ncc(-c4cc(F)cc(F)c4)c(N4CCC(N)CC4)c3c2)c1O", "note": "[Form PL1, Paltusotine]", "values": [
      {"measurement": "time stable after exposure to high and low relative humidity", "value": "at least 7 days"}
    ]}
  ]
}
